The values below come from patent US12435037B2, “Acetylsalicylic acid derivative and application thereof” (Zhejiang Hanmai Pharmaceutical Technology Co., Ltd., priority 2018, dated 2025).

The test has as its system monkey platelet aggregation. The experiment in a line: Inhibitory effect on monkey platelet aggregation after transdermal administration. In kind it is in vivo. Particulars: cynomolgus monkeys, transdermal daily for four weeks (70 mg/kg; comparator 60 mg/kg), inducer 1 mM arachidonic acid. Here is the method:
The dose volume for a monkey was calculated based on its weight. The hair on the monkey's back was shaved, and the drug was evenly applied to the bare skin. The drug was administered continuously every day for four weeks. Blank blood was collected before administration, and blood was collected once a week after administration to detect the platelet aggregation ability (the inducer was 1 mM arachidonic acid).

`CCN(CC)C(=O)COC(=O)c1ccccc1OC(C)=O`: the “inhibitory effect on platelet aggregation” value was “significant inhibitory effect” and the platelet aggregation rate result was “decreased significantly since the second week”.
